Measured values reported in article doi:10.1101/2024.04.12.589178.
Results are given in words; binding and its absence hold for the method and conditions named. In cells and extracts the contact can be indirect. These calls come from enrichment with a bait or labelling near it, and not all partners need be listed.

T1: MIC60 (human (endogenous in HEK293T)) (UniProt Q16891)
T1 sequence: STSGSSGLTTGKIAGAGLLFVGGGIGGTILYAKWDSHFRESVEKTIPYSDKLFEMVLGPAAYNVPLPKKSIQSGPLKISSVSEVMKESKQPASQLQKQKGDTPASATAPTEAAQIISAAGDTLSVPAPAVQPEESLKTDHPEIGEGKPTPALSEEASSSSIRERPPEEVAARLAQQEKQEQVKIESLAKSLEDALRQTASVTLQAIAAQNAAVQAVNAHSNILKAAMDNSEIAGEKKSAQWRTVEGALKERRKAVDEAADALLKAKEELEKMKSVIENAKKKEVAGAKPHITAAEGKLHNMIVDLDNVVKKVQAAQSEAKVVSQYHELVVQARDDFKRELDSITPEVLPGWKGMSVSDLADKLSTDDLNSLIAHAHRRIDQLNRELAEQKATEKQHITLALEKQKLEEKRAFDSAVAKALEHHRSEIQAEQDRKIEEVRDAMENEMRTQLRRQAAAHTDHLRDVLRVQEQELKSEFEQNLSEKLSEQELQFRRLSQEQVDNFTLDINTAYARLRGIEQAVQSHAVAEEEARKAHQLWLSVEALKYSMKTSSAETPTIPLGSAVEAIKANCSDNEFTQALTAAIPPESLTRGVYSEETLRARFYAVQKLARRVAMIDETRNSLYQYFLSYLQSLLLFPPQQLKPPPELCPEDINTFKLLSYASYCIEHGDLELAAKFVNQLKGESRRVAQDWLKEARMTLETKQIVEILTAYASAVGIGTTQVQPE

T2: MPV17-BirA* (human) (UniProt P39210)
T2 sequence: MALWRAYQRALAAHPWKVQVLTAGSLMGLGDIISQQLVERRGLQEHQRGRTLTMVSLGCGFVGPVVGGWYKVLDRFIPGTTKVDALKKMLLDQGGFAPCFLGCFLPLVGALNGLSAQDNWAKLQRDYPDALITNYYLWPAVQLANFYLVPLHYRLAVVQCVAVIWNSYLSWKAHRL


Experiments:
[1] = molecular target: T1, MIC60 (human (endogenous in HEK293T)); test: affinity purification with mass spectrometry
[2] = molecular target: T2, MPV17-BirA* (human); test: proximity labelling

| Binder | binding [1] | binding [2] |
| --- | --- | --- |
| MPV17 (endogenous) (protein, UniProt P39210 1-176) MALWRAYQRALAAHPWKVQVLTAGSLMGLGDIISQQLVERRGLQEHQRGRTLTMVSLGCGFVGPVVGGWYKVLDRFIPGTTKVDALKKMLLDQGGFAPCFLGCFLPLVGALNGLSAQDNWAKLQRDYPDALITNYYLWPAVQLANFYLVPLHYRLAVVQCVAVIWNSYLSWKAHRL | binds | – |
| DNAJC11 (protein, UniProt Q9NVH1 1-559) MATALSEEELDNEDYYSLLNVRREASSEELKAAYRRLCMLYHPDKHRDPELKSQAERLFNLVHQAYEVLSDPQTRAIYDIYGKRGLEMEGWEVVERRRTPAEIREEFERLQREREERRLQQRTNPKGTISVGVDATDLFDRYDEEYEDVSGSSFPQIEINKMHISQSIEAPLTATDTAILSGSLSTQNGNGGGSINFALRRVTSAKGWGELEFGAGDLQGPLFGLKLFRNLTPRCFVTTNCALQFSSRGIRPGLTTVLARNLDKNTVGYLQWRWGIQSAMNTSIVRDTKTSHFTVALQLGIPHSFALISYQHKFQDDDQTRVKGSLKAGFFGTVVEYGAERKISRHSVLGAAVSVGVPQGVSLKVKLNRASQTYFFPIHLTDQLLPSAMFYATVGPLVVYFAMHRLIIKPYLRAQKEKELEKQRESAATDVLQKKQEAESAVRLMQESVRRIIEAEESRMGLIIVNAWYGKFVNDKSRKSEKVKVIDVTVPLQCLVKDSKLILTEASKAGLPGFYDPCVGEEKNLKVLYQFRGVLHQVMVLDSEALRIPKQSHRIDTDG | – | binds |
